# Test results published in paper PMC6896172, “Successful Targeting of the Warburg Effect in Prostate Cancer by Glucose-Conjugated 1,4-Naphthoquinones” (Cancers, 2019).
# Further values from the same series stand in other lists.
# Tested on: 22Rv1 cells
# Experiment: Global proteome analysis (LC-MS/MS, DIA) of differentially expressed proteins
# Assay type: cell-based, human
# Method: 22Rv1 cells were seeded in T75 culture bottles (4 × 10^6 cells/bottle in 20 mL/bottle), treated for 48 h with the 5 µM of compound 11 or vehicle (DMSO), harvested by scratching, washed twice with ice-cold PBS and flash-frozen. Cells were lysed and sonicated. The protein extracts were then heat-denaturated, reduced, alkylated and digested by trypsin. Peptides were chromatographically separated using full recovery autosampler vials and a nano-UPLC system (Acquity, Waters Corporation, Milford, MS, USA), coupled via electrospray ionization (ESI) to a tandem mass spectrometer equipped with a quadrupole and an orbitrap (QExactive, Thermo Fisher Scientific, Bremen, Germany), using MS/MS mode in data dependent acquisition (DDA) and data independent acquisition (DIA). The peptides, analyzed with DDA-LC-MS/MS, were identified with the search engine Sequest, integrated in the Proteome Discoverer software version 2.0 (Thermo Fischer Scientific) using the human Uniprot protein database (EMBL; Hinxton Cambridge, UK, release December 2018). […] For the details of sample preparation and proceeding, data acquisition and analysis see the Supplementary information. […]
# serum (FBS, Invitrogen) and 1% penicillin/streptomycin (Invitrogen)). […]
# Cell lines were lysed in 100 mM triethylammonium bicarbonate and 1% w/v sodium deoxycholate buffer followed by probe sonication to destroy polynucleotides and heat induce protein denaturing at 99 °C for 5 min. Protein concentrations were estimated with a bicinchonic acid (BCA) protein assay (Thermo Fisher Scientific, Bremen, Germany). 20 µg of protein were reduced in presence of 10 mM dithiotreithol (Sigma Aldrich) for 30 min at 60 °C followed by cysteine alkylation with 20 mM iodo acetamide (Sigma Aldrich) for 30 min at 37 °C in the dark and enzymatic degradation with sequencing grade trypsin (Promega) over night at 37 °C. Digestion was quenched with 1% formic acid (FA), precipitated sodium deoxycholate removed by centrifugation for 5 min at 14,000 g and the supernatant was dried in a vacuum centrifuge.
# LC-MS/MS in Data Dependent and Data Independent Mode
# Samples were resuspended in 0.1% FA and transferred into a full recovery autosampler vial (Waters). Chromatographic separation was achieved on a nano -UPLC system (Acquity, Waters Corporation, Milford, MS, USA) with a two-buffer-system (buffer A: 0.1% FA in water, buffer B:
# 0.1% FA in Acetonitrile (ACN), both at pH = 3). Attached to the UPLC was a reversed -phase peptide trapping column (Symmetry C18, 180 µm × 20 mm, 100 Å pore size, 5 µm particle size) for desalting, followed by a reversed-phase capillary separation of the tryptic peptides (BEH C18; 75 µm × 200 mm, 130 Å pore size, 1.7 µm particle size), using a 60 min gradient with increasing ACN concentration from 2–30% ACN. The eluting peptides were analyzed on a quadrupole-orbitrap mass spectrometer (QExactive, Thermo Fisher Scientific, Bremen, Germany) in data dependent acquisition (DDA) and data independent acquisition (DIA) for quantification.
# In DDA mode, one replicate of each cell line was randomly chosen and 1 µg per sample was used per LC-MS/MS run to build a reference spectral library used for data extraction of samples acquired in DIA mode. For DDA, the 12 most intense ions per precursor scan (1 × 10 6 ions, 70,000 Resolution, 120 ms fill time) were analyzed by MS/MS (HCD at 25 normalized collision energy, 1 × 105 ions, 17,500 Resolution, 50 ms fill time) in a range of 400–1300 m/z. A dynamic precursor exclusion of 20 s was used. For DIA, 1 µg of each sample was analyzed using a 30 sequential 20 Da fixed window method covering the mass range from 400 –1000 m/z. Per cycle, 2 precursor scans (1 × […]
# 28 normalized collision energy, 1 × 106 ions, 17,500 Resolution, 50 ms fill time) were performed.
# After the first precursor scan, 15 MS/MS scans were performed covering the precursor mass range from 400–700 m/z followed by the second precursor scan and another 15 MS/MS scans ranging from […]
# LC-MS/MS Data Processing and Analysis […]
structure (smiles),measurement,setting,value
CC1(C)OC2OC(C(O)COC3=CC(=O)c4cccc(O)c4C3=O)C(O)C2O1 (stereo not drawn) [Compound 11],Fold change (treated / control),protein ETFB_HUMAN (P38117),0.8554
same,Fold change (treated / control),protein F111B_HUMAN (Q6SJ93),0.3955
same,Fold change (treated / control),protein FABD_HUMAN (Q8IVS2),0.6979
same,Fold change (treated / control),protein FAKD4_HUMAN (Q969Z0),0.7242
same,Fold change (treated / control),protein FAS_HUMAN (P49327),0.6765
same,Fold change (treated / control),protein FLOT2_HUMAN (Q14254),0.7567
same,Fold change (treated / control),protein G3BP1_HUMAN (Q13283),0.8044
same,Fold change (treated / control),protein GCDH_HUMAN (Q92947),0.7269
same,Fold change (treated / control),protein GHC1_HUMAN (Q9H936),0.7861
same,Fold change (treated / control),protein GL8D1_HUMAN (Q68CQ7),0.6726
same,Fold change (treated / control),protein GLYC_HUMAN (P34896),0.7075
same,Fold change (treated / control),protein GLYR1_HUMAN (Q49A26),0.5273
same,Fold change (treated / control),protein GTF2I_HUMAN (P78347),0.691
same,Fold change (treated / control),protein GTPB6_HUMAN (O43824),0.5255
same,Fold change (treated / control),protein GUAA_HUMAN (P49915),0.7668
same,Fold change (treated / control),protein H4_HUMAN (P62805),0.5561
same,Fold change (treated / control),protein HDHD5_HUMAN (Q9BXW7),0.4429
same,Fold change (treated / control),protein HEM6_HUMAN (P36551),0.7705
same,Fold change (treated / control),protein HIC2_HUMAN (Q96JB3),0.3552
same,Fold change (treated / control),protein HMGB2_HUMAN (P26583),0.8616
same,Fold change (treated / control),protein HNRH1_HUMAN (P31943),0.7863
same,Fold change (treated / control),protein HP1B3_HUMAN (Q5SSJ5),0.7171
same,Fold change (treated / control),protein HPBP1_HUMAN (Q9NZL4),0.344
same,Fold change (treated / control),protein IDH3A_HUMAN (P50213),0.7993
same,Fold change (treated / control),protein IDHP_HUMAN (P48735),0.8606
same,Fold change (treated / control),protein IF2G_HUMAN (P41091),0.7409
same,Fold change (treated / control),protein IPO4_HUMAN (Q8TEX9),0.5203
same,Fold change (treated / control),protein K2C7_HUMAN (P08729),0.6774
same,Fold change (treated / control),protein KAD2_HUMAN (P54819),0.8046
same,Fold change (treated / control),protein KAP0_HUMAN (P10644),0.721
same,Fold change (treated / control),protein KDM2A_HUMAN (Q9Y2K7),0.3972
same,Fold change (treated / control),protein KIF4A_HUMAN (O95239),0.5585
same,Fold change (treated / control),protein KITH_HUMAN (P04183),0.3876
same,Fold change (treated / control),protein LARP4_HUMAN (Q71RC2),0.5045
same,Fold change (treated / control),protein LMAN2_HUMAN (Q12907),0.7375
same,Fold change (treated / control),protein LMNB1_HUMAN (P20700),0.8148
same,Fold change (treated / control),protein MA1A2_HUMAN (O60476),0.3448
same,Fold change (treated / control),protein MAGT1_HUMAN (Q9H0U3),0.4348
same,Fold change (treated / control),protein MBB1A_HUMAN (Q9BQG0),0.4544
same,Fold change (treated / control),protein MBD1_HUMAN (Q9UIS9),0.3439
same,Fold change (treated / control),protein MBOA7_HUMAN (Q96N66),0.7651
same,Fold change (treated / control),protein MCCB_HUMAN (Q9HCC0),0.8303
same,Fold change (treated / control),protein MCM2_HUMAN (P49736),0.5572
same,Fold change (treated / control),protein MCP_HUMAN (P15529),0.1636
same,Fold change (treated / control),protein MET7A_HUMAN (Q9H8H3),0.7217
same,Fold change (treated / control),protein MIEN1_HUMAN (Q9BRT3),0.6775
same,Fold change (treated / control),protein MMSA_HUMAN (Q02252),0.7267
same,Fold change (treated / control),protein MOFA1_HUMAN (Q9Y605),0.5421
same,Fold change (treated / control),protein MPPA_HUMAN (Q10713),0.8249
same,Fold change (treated / control),protein MPPB_HUMAN (O75439),0.7358
same,Fold change (treated / control),protein MYCBP_HUMAN (Q99417),0.6859
same,Fold change (treated / control),protein MZT1_HUMAN (Q08AG7),0.7035
same,Fold change (treated / control),protein NASP_HUMAN (P49321),0.7313
same,Fold change (treated / control),protein NDUA2_HUMAN (O43678),0.4769
same,Fold change (treated / control),protein NDUA4_HUMAN (O00483),0.4541
same,Fold change (treated / control),protein NDUA9_HUMAN (Q16795),0.7923
same,Fold change (treated / control),protein NDUAD_HUMAN (Q9P0J0),0.7567
same,Fold change (treated / control),protein NDUB4_HUMAN (O95168),0.7762
same,Fold change (treated / control),protein NDUB8_HUMAN (O95169),0.7141
same,Fold change (treated / control),protein NDUBA_HUMAN (O96000),0.7553
same,Fold change (treated / control),protein NDUS1_HUMAN (P28331),0.5206
same,Fold change (treated / control),protein NDUS2_HUMAN (O75306),0.6782
same,Fold change (treated / control),protein NDUS8_HUMAN (O00217),0.6991
same,Fold change (treated / control),protein NEP1_HUMAN (Q92979),0.7224
same,Fold change (treated / control),protein NNTM_HUMAN (Q13423),0.849
same,Fold change (treated / control),protein NOG1_HUMAN (Q9BZE4),0.5546
same,Fold change (treated / control),protein NOP2_HUMAN (P46087),0.8208
same,Fold change (treated / control),protein NOP56_HUMAN (O00567),0.7231
same,Fold change (treated / control),protein NPM3_HUMAN (O75607),0.7477
same,Fold change (treated / control),protein NSA2_HUMAN (O95478),0.4343
same,Fold change (treated / control),protein NU107_HUMAN (P57740),0.7773
same,Fold change (treated / control),protein NUCG_HUMAN (Q14249),0.1894
same,Fold change (treated / control),protein NUP50_HUMAN (Q9UKX7),0.8004
same,Fold change (treated / control),protein NUPL2_HUMAN (O15504),0.7328
same,Fold change (treated / control),protein ODPX_HUMAN (O00330),0.7973
same,Fold change (treated / control),protein P5CR2_HUMAN (Q96C36),0.455
same,Fold change (treated / control),protein P5CS_HUMAN (P54886),0.7381
same,Fold change (treated / control),protein P66B_HUMAN (Q8WXI9),0.6724
same,Fold change (treated / control),protein PABP1_HUMAN (P11940),0.8395
same,Fold change (treated / control),protein PAIRB_HUMAN (Q8NC51),0.6802
same,Fold change (treated / control),protein PARP1_HUMAN (P09874),0.852
same,Fold change (treated / control),protein PB1_HUMAN (Q86U86),0.6737
same,Fold change (treated / control),protein PCBP1_HUMAN (Q15365),0.8148
same,Fold change (treated / control),protein PCBP2_HUMAN (Q15366),0.6786
same,Fold change (treated / control),protein PDIA4_HUMAN (P13667),0.8249
same,Fold change (treated / control),protein PDIP3_HUMAN (Q9BY77),0.4965
same,Fold change (treated / control),protein PDXD1_HUMAN (Q6P996),0.6923
same,Fold change (treated / control),protein PESC_HUMAN (O00541),0.4845
same,Fold change (treated / control),protein PHF5A_HUMAN (Q7RTV0),0.3475
same,Fold change (treated / control),protein PIN1_HUMAN (Q13526),0.8459
same,Fold change (treated / control),protein PLAK_HUMAN (P14923),0.7459
same,Fold change (treated / control),protein PLEC_HUMAN (Q15149),0.7645
same,Fold change (treated / control),protein PLPP6_HUMAN (Q8IY26),0.6855
same,Fold change (treated / control),protein PMYT1_HUMAN (Q99640),0.2195
same,Fold change (treated / control),protein PNPT1_HUMAN (Q8TCS8),0.8319
same,Fold change (treated / control),protein PO210_HUMAN (Q8TEM1),0.7212
same,Fold change (treated / control),protein PPIC_HUMAN (P45877),0.8138
same,Fold change (treated / control),protein PR38A_HUMAN (Q8NAV1),0.7148
same,Fold change (treated / control),protein PRKDC_HUMAN (P78527),0.7563
same,Fold change (treated / control),protein PRP19_HUMAN (Q9UMS4),0.7043
same,Fold change (treated / control),protein PRP31_HUMAN (Q8WWY3),0.7933
same,Fold change (treated / control),protein PSPC1_HUMAN (Q8WXF1),0.7106
